Data from US20220356266A1.
These are yes or no findings as the source states them, for the method shown. Some entries that bind do so weakly or less than the wild type.

The chains behind the UniProt entries cited, without tags or fusion partners. Residues count along the entry.
UniProt Q04609, residues 44-750: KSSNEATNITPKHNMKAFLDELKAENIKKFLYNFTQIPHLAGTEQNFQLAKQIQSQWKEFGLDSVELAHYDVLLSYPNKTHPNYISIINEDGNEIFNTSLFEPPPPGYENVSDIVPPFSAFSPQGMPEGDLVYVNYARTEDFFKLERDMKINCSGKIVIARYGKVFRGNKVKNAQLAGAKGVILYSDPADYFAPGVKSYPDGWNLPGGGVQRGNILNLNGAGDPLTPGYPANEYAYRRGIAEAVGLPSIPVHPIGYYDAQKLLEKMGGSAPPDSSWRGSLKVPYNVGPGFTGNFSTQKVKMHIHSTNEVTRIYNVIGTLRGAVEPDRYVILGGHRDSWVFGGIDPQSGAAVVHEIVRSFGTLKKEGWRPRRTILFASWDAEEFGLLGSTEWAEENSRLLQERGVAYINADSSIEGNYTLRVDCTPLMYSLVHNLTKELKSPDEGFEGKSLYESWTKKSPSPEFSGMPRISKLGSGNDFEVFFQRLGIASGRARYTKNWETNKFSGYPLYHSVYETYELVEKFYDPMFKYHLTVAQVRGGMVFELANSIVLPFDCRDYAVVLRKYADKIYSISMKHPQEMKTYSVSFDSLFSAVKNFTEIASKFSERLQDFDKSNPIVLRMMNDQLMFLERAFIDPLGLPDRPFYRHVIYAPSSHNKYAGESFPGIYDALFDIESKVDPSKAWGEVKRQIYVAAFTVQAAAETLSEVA

Molecular target: PSMA (form used in the binding assay not stated) (UniProt Q04609)
Test: binding assay, method not described

B1: PSMB952 (antibody, V domains shown)
VH: EVQLVESGGGLVQPGGSLRLSCAASGFTFSSYAMSWVRQAPGKGLEWVSAISGGIGSTYYADSVKGRFTISRDNSKNTLWLQMNSLRAEDTAVYYCAKDGVGATPYYFDYWGQGTLVTVSS
VL: QSVLTQPPSVSAAPGQKVTISCSGSSSNIGINYVSWYQQLPGTAPKLLIYDNNKRPSGIPDRFSGSKSGTSATLGITGLQTGDEADYYCGTWDSSLSAVVFGGGTKLTVL
How did the binding turn out when B1 was run?
The binding was “binds”.

B2: PSMB956 (antibody, V domains shown)
VH: EVQLVESGGGLVQPGGSLRLSCAASGFTFSSYAMSWVRQAPGKGLEWVSAISGGSGSTYYADSVKGRFTISRDNSKNTLYLQMNSLRAEDSAVYYCAKDGVGATPYYFDYWGQGTLVTVSS
VL: QSVLTQPPSVSAAPGQKVTISCSGSSSNIGINYVSWYQQLPGTAPKLLIYDNNKRPSGIPDRFSGSKSGTSATLGITGLQTGDEADYYCGTWDSSLSAVVFGGGTKLTVL
Which binding does the source give for B2 here?
The binding was “binds”.
